The supplement of paper PMC6411743
± gives the standard deviation of the averaged measurements. The list shows a part of the results.

Amino acid sequences for entries named in this document (tags omitted). A change or cut given only in a name is not applied to a line headed by its entry.
UniProt Q9GZT9: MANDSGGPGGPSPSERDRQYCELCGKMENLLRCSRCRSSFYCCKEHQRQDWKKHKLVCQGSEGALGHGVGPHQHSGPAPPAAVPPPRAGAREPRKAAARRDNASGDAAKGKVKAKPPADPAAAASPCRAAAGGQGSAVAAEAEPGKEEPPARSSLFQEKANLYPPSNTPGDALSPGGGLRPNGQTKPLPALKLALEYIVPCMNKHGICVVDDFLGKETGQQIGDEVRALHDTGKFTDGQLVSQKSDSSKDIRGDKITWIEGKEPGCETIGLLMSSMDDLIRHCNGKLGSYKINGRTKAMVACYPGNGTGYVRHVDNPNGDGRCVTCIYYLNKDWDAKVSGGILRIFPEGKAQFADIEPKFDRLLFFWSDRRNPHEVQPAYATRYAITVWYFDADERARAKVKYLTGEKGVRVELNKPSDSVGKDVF
UniProt Q9H0B6: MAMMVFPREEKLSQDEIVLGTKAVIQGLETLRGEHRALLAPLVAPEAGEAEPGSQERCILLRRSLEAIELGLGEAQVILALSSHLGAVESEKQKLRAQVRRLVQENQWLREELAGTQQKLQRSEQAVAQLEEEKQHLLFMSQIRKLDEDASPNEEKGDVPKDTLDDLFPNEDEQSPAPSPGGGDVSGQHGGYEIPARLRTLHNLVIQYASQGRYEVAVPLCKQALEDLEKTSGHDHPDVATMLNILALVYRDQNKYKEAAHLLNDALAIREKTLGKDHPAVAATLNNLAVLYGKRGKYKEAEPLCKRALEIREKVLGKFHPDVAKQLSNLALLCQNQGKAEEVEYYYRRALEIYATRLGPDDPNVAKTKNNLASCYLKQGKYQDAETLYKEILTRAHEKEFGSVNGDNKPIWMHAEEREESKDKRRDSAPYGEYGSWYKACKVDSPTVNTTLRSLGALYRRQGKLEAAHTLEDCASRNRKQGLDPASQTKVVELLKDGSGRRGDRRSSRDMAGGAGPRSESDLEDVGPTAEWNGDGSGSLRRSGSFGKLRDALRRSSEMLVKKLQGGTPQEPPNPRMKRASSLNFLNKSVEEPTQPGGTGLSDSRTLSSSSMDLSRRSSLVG
UniProt Q9H2J4: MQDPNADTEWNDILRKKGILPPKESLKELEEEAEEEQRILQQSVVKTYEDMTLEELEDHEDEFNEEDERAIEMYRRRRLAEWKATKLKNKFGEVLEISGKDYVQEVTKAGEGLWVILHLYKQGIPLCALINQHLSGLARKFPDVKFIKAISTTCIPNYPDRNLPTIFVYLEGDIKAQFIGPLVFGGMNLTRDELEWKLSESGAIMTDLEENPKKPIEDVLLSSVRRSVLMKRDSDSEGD
UniProt Q9H7Z7: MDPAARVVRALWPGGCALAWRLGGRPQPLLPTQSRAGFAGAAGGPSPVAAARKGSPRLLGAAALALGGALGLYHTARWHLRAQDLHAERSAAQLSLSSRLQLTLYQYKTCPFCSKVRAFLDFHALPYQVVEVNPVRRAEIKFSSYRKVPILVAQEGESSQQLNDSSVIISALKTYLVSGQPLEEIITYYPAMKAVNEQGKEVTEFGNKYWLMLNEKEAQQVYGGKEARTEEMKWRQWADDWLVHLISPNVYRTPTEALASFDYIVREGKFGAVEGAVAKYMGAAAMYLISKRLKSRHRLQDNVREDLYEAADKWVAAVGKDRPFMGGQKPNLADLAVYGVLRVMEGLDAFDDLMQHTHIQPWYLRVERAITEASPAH
UniProt Q9HBH1: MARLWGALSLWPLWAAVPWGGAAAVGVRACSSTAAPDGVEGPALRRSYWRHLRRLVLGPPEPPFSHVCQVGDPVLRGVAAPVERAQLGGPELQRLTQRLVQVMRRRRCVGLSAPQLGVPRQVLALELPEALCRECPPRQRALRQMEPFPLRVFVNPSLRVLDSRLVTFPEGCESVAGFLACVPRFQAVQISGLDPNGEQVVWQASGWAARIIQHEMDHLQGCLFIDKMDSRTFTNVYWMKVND
UniProt Q9H871: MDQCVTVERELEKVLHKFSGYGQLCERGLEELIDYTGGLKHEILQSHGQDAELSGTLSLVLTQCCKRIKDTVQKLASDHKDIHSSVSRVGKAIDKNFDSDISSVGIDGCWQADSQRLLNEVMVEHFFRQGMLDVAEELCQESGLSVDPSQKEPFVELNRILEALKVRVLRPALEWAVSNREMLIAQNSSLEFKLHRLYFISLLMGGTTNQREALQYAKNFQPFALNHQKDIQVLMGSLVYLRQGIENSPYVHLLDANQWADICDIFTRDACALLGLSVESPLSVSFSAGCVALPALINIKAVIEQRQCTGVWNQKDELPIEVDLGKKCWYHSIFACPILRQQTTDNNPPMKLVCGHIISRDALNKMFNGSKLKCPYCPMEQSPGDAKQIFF
UniProt Q9H3Z4: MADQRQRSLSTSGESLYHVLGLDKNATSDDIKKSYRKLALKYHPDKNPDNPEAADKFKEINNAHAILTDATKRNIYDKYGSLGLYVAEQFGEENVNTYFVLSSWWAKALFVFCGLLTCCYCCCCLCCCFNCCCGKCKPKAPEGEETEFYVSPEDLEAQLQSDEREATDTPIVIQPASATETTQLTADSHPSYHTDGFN
UniProt Q9NQE9: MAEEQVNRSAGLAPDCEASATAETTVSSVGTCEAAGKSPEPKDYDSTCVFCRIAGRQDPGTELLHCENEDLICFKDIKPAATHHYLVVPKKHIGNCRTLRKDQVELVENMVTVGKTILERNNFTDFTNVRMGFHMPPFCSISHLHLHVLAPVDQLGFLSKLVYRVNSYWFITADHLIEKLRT
UniProt Q9H3G5: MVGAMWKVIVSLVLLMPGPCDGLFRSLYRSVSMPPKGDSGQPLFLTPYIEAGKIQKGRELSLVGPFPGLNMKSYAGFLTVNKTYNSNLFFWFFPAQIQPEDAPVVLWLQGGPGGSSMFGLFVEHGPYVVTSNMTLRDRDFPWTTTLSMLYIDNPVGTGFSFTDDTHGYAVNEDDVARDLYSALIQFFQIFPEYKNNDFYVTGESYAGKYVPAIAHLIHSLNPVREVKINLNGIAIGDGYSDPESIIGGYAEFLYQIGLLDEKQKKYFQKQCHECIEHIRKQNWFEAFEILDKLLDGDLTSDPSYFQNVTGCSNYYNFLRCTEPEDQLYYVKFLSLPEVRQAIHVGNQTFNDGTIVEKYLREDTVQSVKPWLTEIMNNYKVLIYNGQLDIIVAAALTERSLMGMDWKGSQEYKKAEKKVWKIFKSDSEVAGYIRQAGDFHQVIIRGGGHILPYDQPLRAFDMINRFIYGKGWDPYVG
UniProt Q9H6Z4: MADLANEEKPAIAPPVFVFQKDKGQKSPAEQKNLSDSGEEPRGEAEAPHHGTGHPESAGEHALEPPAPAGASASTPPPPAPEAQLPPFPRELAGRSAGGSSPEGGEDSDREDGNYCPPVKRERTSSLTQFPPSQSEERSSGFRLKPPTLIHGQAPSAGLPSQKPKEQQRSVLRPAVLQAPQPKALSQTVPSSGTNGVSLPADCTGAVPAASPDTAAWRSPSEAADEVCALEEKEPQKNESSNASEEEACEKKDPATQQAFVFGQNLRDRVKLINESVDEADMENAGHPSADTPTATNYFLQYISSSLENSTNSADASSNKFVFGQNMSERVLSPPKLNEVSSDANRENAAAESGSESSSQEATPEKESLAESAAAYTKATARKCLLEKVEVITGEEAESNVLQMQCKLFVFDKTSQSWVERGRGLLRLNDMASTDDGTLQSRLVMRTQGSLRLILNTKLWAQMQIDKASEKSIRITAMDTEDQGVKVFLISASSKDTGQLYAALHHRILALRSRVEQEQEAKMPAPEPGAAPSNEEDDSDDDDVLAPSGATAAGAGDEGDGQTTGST
UniProt Q9H4A6: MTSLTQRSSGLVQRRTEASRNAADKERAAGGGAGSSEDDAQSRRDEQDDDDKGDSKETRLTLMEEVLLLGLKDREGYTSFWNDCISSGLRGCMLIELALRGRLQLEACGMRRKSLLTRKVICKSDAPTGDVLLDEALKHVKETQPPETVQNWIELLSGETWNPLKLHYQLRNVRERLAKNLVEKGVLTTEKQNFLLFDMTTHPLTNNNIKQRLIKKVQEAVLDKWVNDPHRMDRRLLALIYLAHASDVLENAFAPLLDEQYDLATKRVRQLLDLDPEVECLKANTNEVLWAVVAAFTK
UniProt Q9GZU8: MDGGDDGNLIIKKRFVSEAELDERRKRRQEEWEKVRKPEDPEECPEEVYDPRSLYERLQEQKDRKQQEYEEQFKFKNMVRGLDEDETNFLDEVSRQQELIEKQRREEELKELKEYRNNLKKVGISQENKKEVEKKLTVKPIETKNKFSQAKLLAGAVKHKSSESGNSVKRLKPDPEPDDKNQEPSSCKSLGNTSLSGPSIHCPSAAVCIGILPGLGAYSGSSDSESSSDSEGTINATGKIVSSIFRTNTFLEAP
UniProt Q9HBE1: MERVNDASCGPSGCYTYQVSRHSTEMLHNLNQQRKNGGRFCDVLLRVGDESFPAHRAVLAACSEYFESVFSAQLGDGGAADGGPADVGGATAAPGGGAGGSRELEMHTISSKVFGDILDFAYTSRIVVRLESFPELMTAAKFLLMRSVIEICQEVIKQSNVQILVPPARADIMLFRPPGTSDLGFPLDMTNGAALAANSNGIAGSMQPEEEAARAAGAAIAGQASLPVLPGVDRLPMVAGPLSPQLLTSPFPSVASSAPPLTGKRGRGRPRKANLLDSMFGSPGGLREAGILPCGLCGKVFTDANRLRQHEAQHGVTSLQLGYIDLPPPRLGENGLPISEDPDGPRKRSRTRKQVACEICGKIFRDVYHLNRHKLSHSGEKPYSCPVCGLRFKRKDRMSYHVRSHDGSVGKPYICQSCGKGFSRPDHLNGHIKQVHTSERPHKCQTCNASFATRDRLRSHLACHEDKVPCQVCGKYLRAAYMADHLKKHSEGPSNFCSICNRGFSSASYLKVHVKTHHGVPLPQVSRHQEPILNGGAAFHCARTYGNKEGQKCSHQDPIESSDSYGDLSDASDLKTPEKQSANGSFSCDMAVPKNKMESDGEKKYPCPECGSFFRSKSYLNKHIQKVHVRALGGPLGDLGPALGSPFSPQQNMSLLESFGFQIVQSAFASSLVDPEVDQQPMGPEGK
UniProt Q9H078: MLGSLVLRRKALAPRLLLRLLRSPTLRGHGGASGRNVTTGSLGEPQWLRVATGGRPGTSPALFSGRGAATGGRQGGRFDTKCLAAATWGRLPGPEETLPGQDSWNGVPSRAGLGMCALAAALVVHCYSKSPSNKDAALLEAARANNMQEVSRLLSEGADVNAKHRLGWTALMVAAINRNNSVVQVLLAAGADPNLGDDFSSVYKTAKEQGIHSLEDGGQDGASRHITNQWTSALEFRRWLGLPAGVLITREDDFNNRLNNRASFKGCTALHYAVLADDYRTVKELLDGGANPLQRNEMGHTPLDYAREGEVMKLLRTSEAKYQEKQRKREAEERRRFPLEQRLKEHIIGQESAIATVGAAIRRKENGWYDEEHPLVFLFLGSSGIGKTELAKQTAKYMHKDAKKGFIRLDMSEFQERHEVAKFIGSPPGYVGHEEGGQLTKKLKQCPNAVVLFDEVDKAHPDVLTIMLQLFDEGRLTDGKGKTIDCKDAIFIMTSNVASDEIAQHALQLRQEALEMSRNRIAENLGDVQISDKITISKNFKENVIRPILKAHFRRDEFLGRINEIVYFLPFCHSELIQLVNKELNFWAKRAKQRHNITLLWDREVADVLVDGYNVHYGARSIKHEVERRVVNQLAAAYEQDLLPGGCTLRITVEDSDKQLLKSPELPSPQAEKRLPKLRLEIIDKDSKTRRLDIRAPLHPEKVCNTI
UniProt Q9HCG8: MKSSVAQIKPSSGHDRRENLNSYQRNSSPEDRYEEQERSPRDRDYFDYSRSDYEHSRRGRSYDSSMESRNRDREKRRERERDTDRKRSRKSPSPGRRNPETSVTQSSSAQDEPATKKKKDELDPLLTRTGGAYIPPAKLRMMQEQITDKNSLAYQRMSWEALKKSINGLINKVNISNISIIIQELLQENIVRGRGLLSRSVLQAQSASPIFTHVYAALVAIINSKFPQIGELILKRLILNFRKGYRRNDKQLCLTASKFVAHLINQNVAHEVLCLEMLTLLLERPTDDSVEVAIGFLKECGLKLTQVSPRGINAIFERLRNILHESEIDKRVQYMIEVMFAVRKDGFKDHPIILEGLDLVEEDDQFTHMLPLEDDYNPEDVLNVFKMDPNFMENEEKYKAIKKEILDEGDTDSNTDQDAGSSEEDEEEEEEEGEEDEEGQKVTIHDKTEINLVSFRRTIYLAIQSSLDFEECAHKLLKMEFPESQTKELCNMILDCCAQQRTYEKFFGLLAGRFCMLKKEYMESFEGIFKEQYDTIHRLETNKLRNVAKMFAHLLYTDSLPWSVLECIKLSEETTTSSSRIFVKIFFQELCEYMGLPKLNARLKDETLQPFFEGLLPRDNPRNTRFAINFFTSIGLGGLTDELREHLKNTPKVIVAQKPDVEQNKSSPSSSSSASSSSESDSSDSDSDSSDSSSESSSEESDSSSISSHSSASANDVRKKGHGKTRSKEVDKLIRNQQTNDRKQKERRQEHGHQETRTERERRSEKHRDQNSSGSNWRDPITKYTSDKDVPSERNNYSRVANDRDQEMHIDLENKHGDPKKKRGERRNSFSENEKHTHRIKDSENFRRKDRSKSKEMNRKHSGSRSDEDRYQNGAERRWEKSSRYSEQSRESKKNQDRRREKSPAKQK

Compound: Nc1nc2c(ncn2[C@@H]2O[C@H](COP(=O)(O)OP(=O)(O)OP(=O)(O)O)[C@@H](O)[C@H]2O)c(=O)[nH]1 [guanosine triphosphate]
Assay: NP40-soluble protein abundance relative to vehicle (solubility fold change) (ratio); higher = more soluble protein in presence of GTP
Conditions: concentration: 6mM
Method in brief: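 Data come from three independent experiments in which Dounce-homogenised Jurkat crude lysate was treated at eight concentrations from 0.1 to 10 mM. Treatment ran 10 min at room temperature and then 3 min at 37 °C, after which 0.8% NP40 and benzonase were added for 60 min at 4 °C before ultracentrifugation. The supernatant underwent TMT labelling and LC-MS/MS, and vsn-normalised intensities were expressed as fold change against the detergent-processed vehicle in each replicate.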

EGLN1 (UniProt Q9GZT9) was tested. Which NP40-soluble protein abundance did it give?
Its NP40-soluble protein abundance is 0.933 ± 0.082.

How did the NP40-soluble protein abundance turn out when UniProt Q9HD20 and related entries was run?
The NP40-soluble protein abundance was 0.917 ± 0.016.

For UniProt Q9H330 and related entries, which NP40-soluble protein abundance is on record?
The NP40-soluble protein abundance was 0.834 ± 0.028.

Which NP40-soluble protein abundance does the source give for UPF2 (UniProt Q9HAU5) here?
Its NP40-soluble protein abundance is 0.978 ± 0.018.

How did the NP40-soluble protein abundance turn out when KLC2 (UniProt Q9H0B6) was run?
The NP40-soluble protein abundance was 0.955 ± 0.062.

For UniProt Q9HCE5, which NP40-soluble protein abundance is on record?
Its NP40-soluble protein abundance is 0.896 ± 0.044.

UniProt Q9NNW7 and related entries was tested. Which NP40-soluble protein abundance did it give?
Its NP40-soluble protein abundance is 0.94 ± 0.074.

Which NP40-soluble protein abundance does the source give for PDCL3 (UniProt Q9H2J4) here?
The NP40-soluble protein abundance was 1.09 ± 0.15.

With UniProt Q9H7Z7 and related entries as the target, how does the NP40-soluble protein abundance read?
The NP40-soluble protein abundance was 0.875 ± 0.01.

With PDF (UniProt Q9HBH1) as the target, how does the NP40-soluble protein abundance read?
The NP40-soluble protein abundance was 0.942 ± 0.071.

For UniProt Q9HDC9-2|Q9HDC9, which NP40-soluble protein abundance is on record?
Its NP40-soluble protein abundance is 0.872 ± 0.03.

Which NP40-soluble protein abundance does the source give for “UniProt Q9H2D6-5|Q9H2D6 and related entries” here?
The NP40-soluble protein abundance was 1.05 ± 0.17.

With RMI1 (UniProt Q9H9A7) as the target, how does the NP40-soluble protein abundance read?
The NP40-soluble protein abundance was 0.995 ± 0.07.

For UniProt Q9GZT3 and related entries, which NP40-soluble protein abundance is on record?
Its NP40-soluble protein abundance is 0.996 ± 0.076.

How did the NP40-soluble protein abundance turn out when UniProt Q9H871 was run?
The NP40-soluble protein abundance was 1.14 ± 0.17.

Which NP40-soluble protein abundance does the source give for UniProt Q9H3Z4 and related entries here?
Its NP40-soluble protein abundance is 0.907 ± 0.045.

With HINT3 (UniProt Q9NQE9) as the target, how does the NP40-soluble protein abundance read?
Its NP40-soluble protein abundance is 0.929 ± 0.031.

How did the NP40-soluble protein abundance turn out when NANS (UniProt Q9NR45) was run?
The NP40-soluble protein abundance was 0.895 ± 0.056.

Which NP40-soluble protein abundance does the source give for CPVL (UniProt Q9H3G5) here?
The NP40-soluble protein abundance was 0.953 ± 0.043.

Which NP40-soluble protein abundance does the source give for PELI2 (UniProt Q9HAT8) here?
Its NP40-soluble protein abundance is 0.938 ± 0.036.

With UniProt Q9H6Z4 and related entries as the target, how does the NP40-soluble protein abundance read?
Its NP40-soluble protein abundance is 0.844 ± 0.039.

With GOLPH3 (UniProt Q9H4A6) as the target, how does the NP40-soluble protein abundance read?
Its NP40-soluble protein abundance is 0.88 ± 0.031.

For UniProt Q9GZU8, which NP40-soluble protein abundance is on record?
Its NP40-soluble protein abundance is 0.911 ± 0.046.

Which NP40-soluble protein abundance does the source give for UniProt Q9HBE1 and related entries here?
The NP40-soluble protein abundance was 1.26 ± 0.063.

UniProt Q9H0X9 and related entries was tested. Which NP40-soluble protein abundance did it give?
The NP40-soluble protein abundance was 1.21 ± 0.038.

With UniProt Q9H078 and related entries as the target, how does the NP40-soluble protein abundance read?
The NP40-soluble protein abundance was 1.08 ± 0.098.

For CWC22 (UniProt Q9HCG8), which NP40-soluble protein abundance is on record?
The NP40-soluble protein abundance was 0.908 ± 0.092.
